Bridge positions count the residues as written; N and C are the ends. Square brackets hold non-standard residues; d marks the D form. * marks the point of attachment. ξ: configuration not given here. Phe(4-NO2) = N[C@@H](Cc1ccc([N+](=O)[O-])cc1)C(=O)O; dPhe(4-NHCONH2) = NC(=O)Nc1ccc(C[C@@H](N)C(=O)O)cc1; ξDihydroorotoyl = O=C1CC(C(=O)*)NC(=O)N1; Phe(4-NH2) = Nc1ccc(C[C@H](N)C(=O)O)cc1; 2Nal = N[C@@H](Cc1ccc2ccccc2c1)C(=O)O
Assay: general procedure: Boc solid-phase peptide synthesis; MBHA resin, capacity 0.3-0.4 mequiv/g
Conditions: for final purity (method not given): CZE; for final HPLC purity: analytical RP-HPLC and capillary zone electrophoresis (CZE)
[1] = conjugation step, one disulfide bridge
[2] = whole synthesis, one disulfide bridge
[3] = conjugation step, one disulfide bridge, sequence written open
[4] = whole synthesis, one disulfide bridge, sequence written open

Substance | final purity (method not given) [2] | final HPLC purity [2] | further results
(cyclo 3-14) DOTA-pNO2-Phe-D-Cys-Tyr-D-4Aph(Cbm)-Lys-Thr-Cys-D-Tyr-NH2 | – | – | final purity (method not given) (conjugation step, run 1): about 98%; final purity (method not given) (conjugation step, run 2): 99%; final HPLC purity (conjugation step): 99%
DOTA-pNO2Phe-DCys-Tyr-DTrp-Lys-Thr-Cys-DTyr-NH2 | – | – | final purity (method not given) [1]: 97%; final HPLC purity [1]: 95%
H2N—Cpa-DCys-Aph(CONH—OH)-DTrp-Lys-Thr-Cys-2Nal-NH2 | 99% | 99% | –
H2N—Cpa-DCys-Aph(Cbm)-DTrp-Lys-Thr-Cys-2Nal-NH2 | 97% | 99% | –
(cyclo 3-14) DOTA-pNO2-Phe-D-Cys-Tyr-D-4Aph(Cbm)-Lys-Thr-Cys-2Nal-NH2 | – | – | final purity (method not given) (conjugation step, run 1): about 98%; final purity (method not given) (conjugation step, run 2): 99%; final HPLC purity (conjugation step): 99%
H2N—Cpa-DCys-Tyr-DTrp-Lys-Thr-Cys-2Nal-NH2 | 99% | 99% | –
H-[Phe(4-NO2)][dC][Phe(4-NH2)](ξDihydroorotoyl)[dPhe(4-NHCONH2)]KTC[2Nal]-NH2 (disulfide 2-7; SMILES C[C@@H](O)[C@@H]1NC(=O)[C@H](CCCCN)NC(=O)[C@@H](Cc2ccc(NC(N)=O)cc2)NC(=O)[C@H](Cc2ccc(NC(=O)C3CC(=O)NC(=O)N3)cc2)NC(=O)[C@H](NC(=O)[C@@H](N)Cc2ccc([N+](=O)[O-])cc2)CSSC[C@@H](C(=O)N[C@@H](Cc2ccc3ccccc3c2)C(N)=O)NC1=O) | – | – | final purity (method not given) (whole synthesis): 99%; final HPLC purity (whole synthesis): 99%
DOTA-Peg-Cpa-DCys-Aph(Cbm)-DTrp-Lys-Thr-Cys-2Nal-NH2 | – | – | final purity (method not given) [3]: 99%; final HPLC purity [3]: 99%
Cbm-Cpa-DCys-Aph(Cbm)-DTrp-Lys-Thr-Cys-2Nal-NH2 | – | – | final purity (method not given) [4]: 98%; final HPLC purity [4]: 96%
H2N—Cpa-DCys-Tyr-DTrp-NMeLys-Thr-Cys-2Nal-NH2 | 99% | 97% | –
H2N—Cpa-DCys-L-Agl(NMe,benzoyl)-DTrp-Lys-Thr-Cys-2Nal-NH2 | 98% | 95% | –
H2N—Cpa-DCys-Aph(Cbm)-5F-DTrp-Lys-Thr-Cys-2Nal-NH2 | 96% | 96% | –
H2N—Cpa-DCys-Aph(Cbm)-DTrp-Lys-Thr-Cys-NH2 | 99% | 99% | –
H2N—Cpa-DCys-Aph(Cbm)-DTrp-Lys-Thr-Cys-Aph(Cbm)-NH2 | 99% | 99% | –
H2N—Cpa-DCys-D-Agl(NMe,benzoyl)-DTrp-Lys-Thr-Cys-2Nal-NH2 | 99% | 98% | –
(cyclo 3-14) DOTA-Cpa-D-Cys-4Aph(Hor)-D-Aph(Cbm)-Lys-Thr-Cys-2Nal-NH2 | – | – | final purity (method not given) (conjugation step): about 98% pure
H2N—Cpa-DCys-Aph(Cbm)-DTrp-Lys-Thr-Cys-Cha-NH2 | 96% | 99% | –
Ac-pNO2Phe-DCys-Tyr-DTrp-Lys-Thr-Cys-DTyr-NH2 | 99% | 99% | –
H2N—Cpa-DCys-Aph(CONH—OCH3)-DTrp-Lys-Thr-Cys-2Nal-NH2 | 99% | 99% | –
DOTA-βAla-Cpa-DCys-Aph(Cbm)-DTrp-Lys-Thr-Cys-2Nal-NH2 | – | – | final purity (method not given) [3]: 98%; final HPLC purity [3]: 99%
(cyclo 3-14) DOTA-Cpa-D-Cys-4Aph(Hor)-D-4Aph(Cbm)-Lys-Thr-Cys-NH2 | – | – | final purity (method not given) (conjugation step): about 98%
(cyclo 3-14) DOTA-Cpa-D-Cys-4Aph(Hor)-D-4Aph(Cbm)-Lys-Thr-Cys-D-Tyr-NH2 | – | – | final purity (method not given) (conjugation step): about 98%
(cyclo 3-14) DOTA-pNO2-Phe-D-Cys-ITyr-D-Trp-Lys-Thr-Cys-D-Tyr-NH2 | – | – | final purity (method not given) (conjugation step): about 98% pure
H2N—Cpa-DCys-Aph(Cbm)-DTrp-Lys-Thr-Cys-Aph(Hor)-NH2 | 99% | 99% | –
H2N—Cpa-DCys-Leu-DTrp-Lys-Thr-Cys-2Nal-NH2 | 99% | 99% | –
H2N—Cpa-DCys-Aph(Cbm)-DTrp-Lys-Thr-Cys-DAph(Cbm)-NH2 | 99% | 99% | –
(cyclo 3-14) DOTA-Cpa-D-Cys-4Aph(Cbm)-D-Trp-Lys-Thr-Cys-2Nal-NH2 | – | – | final purity (method not given) (conjugation step): about 98% pure; final HPLC purity (conjugation step): 99%
H2N—pNO2Phe-DCys-Tyr-DAph(Cbm)-Lys-Thr-Cys-2Nal-NH2 | 99% | 99% | –
H2N—Cpa-DCys-Aph(Cbm)-DTrp-Lys-Thr-Cys-DAph(Cbm)-Gly-OH | 98% | 98% | –
(cyclo 3-14) DOTA-Cpa-D-Cys-Tyr-D-4Aph(Cbm)-Lys-Thr-Cys-2Nal-NH2 | – | – | final purity (method not given) (conjugation step): 94% pure
